Source: PubChem BioAssay AID504834 (National Center for Advancing Translational Sciences (NCATS), 2011)
The whole screen tested about 320,000 compounds, of which about 22,000 (6.9%) were called active. Inconclusive results, whose numbers are uncertain, are shown with a selection of clear calls. Calls follow the shape of the dose curve; as a rule, active = well fitted inhibition curve with a large enough effect; inconclusive = small, poorly fitted or top-dose-only effect, or another doubt; inactive = no such curve, though single readings can be large or run the other way. Where the call is inconclusive, the potency comes from a doubtful curve fit.

Experiment: Primary qHTS for delayed death inhibitors of the malarial parasite plastid, 96 hour incubation
Conditions: P. falciparum luciferase reporter growth; series mostly up to 28.7 µM
Outline: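 P. falciparum expressing integrated firefly luciferase grown in erythrocytes (2% hematocrit, 0.05% parasitemia final) with compounds for 96 hours at 37 C, 5% CO2. Growth inhibition read as loss of luminescence after adding luciferase detection reagent.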
% is scaled to controls: 0 for no effect and ±100 for the full control effect; potency is read from the fitted curve at half-maximal effect.

SMILES	Potency	activity change, negative = inhibition
Cc1ccc(N(C)C2=NC(=O)CS2)cc1Cl	inconclusive: 11.7 µM [inhibitor, single point]	
COc1cc(C(=O)NC2CCN(Cc3ccccc3)CC2)cc(Cl)c1OC(C)C	inconclusive: 10.4 µM [inhibitor, partial curve]	
COc1ccc(N(C(=O)Cn2nnc3ccccc32)C(C(=O)NCc2ccco2)c2ccc(C)o2)cc1 (centres undefined)	inconclusive: 8.28 µM [inhibitor, single point]	
O=C(Nn1cc(C(=O)Nc2ccccc2F)c2ccccc2c1=O)c1cnccn1	inconclusive: 1.04 µM [inhibitor, full curve, poor fit]	
CCCn1c(NC(=O)c2ccc(Cl)c(S(=O)(=O)N3CCCC3)c2)nc2ccccc21	active: 5.22 µM	
CCOc1ccc(-n2c(N)c(C(=O)N3CCN(C)CC3)sc2=S)cc1	inconclusive: 4.15 µM [inhibitor, single point]	
CC(C)(CNC(=O)c1sc2cc(F)ccc2c1Cl)N1CCOCC1	inconclusive: 5.86 µM [inhibitor, partial curve]	
O=C(NC(=S)Nc1ccc(S(=O)(=O)Nc2nccs2)cc1)c1ccccc1F	inactive	
CNC(=O)c1cccc(NC(=O)c2cc(-c3ccccc3)nc3c2cnn3C(C)C)c1	inconclusive: 8.28 µM [inhibitor, partial curve, poor fit]	
CCCCOc1ccc(N(CC(=O)NC2CCCCC2)C(=O)CCC(=O)Nc2ccccn2)cc1	inconclusive: 4.15 µM [inhibitor, single point]	
CCC(C)[C@H](NC(=O)N1CCCC1)C(=O)O (some centres undefined)	active: 6.57 µM	
CC(C)n1nc(C(=O)NC2CCCCCC2)c2ccccc2c1=O	inconclusive: 18.5 µM [inhibitor, single point]	
CC[n+]1cccc(-c2nc3ccccc3s2)c1	inconclusive: 3.29 µM [inhibitor, single point]	
COC(=O)c1ccc(CSc2ccc(S(=O)(=O)N3CCCCC3)cn2)cc1	inconclusive: 18.5 µM [inhibitor, single point]	
COc1ccc(S(=O)(=O)N2CCN(c3ccccn3)CC2)c(OC)c1	active: 4.65 µM	
COc1cc2c(cc1OC)C(C)N(C(=O)C(NC(=O)c1ccccc1)C(C)C)CC2 (centres undefined)	inconclusive: 11.7 µM [inhibitor, single point]	
Cc1ccc(S(=O)(=O)n2c([N+](=O)[O-])cnc2C)c(C)c1C	inconclusive: 2.62 µM [inhibitor, full curve, poor fit]	
CCOc1ccccc1NC(=O)NCCC1=CCCCC1	inconclusive: 18.5 µM [inhibitor, single point]	
CCCOc1ccc(N2C(=O)CC(NCCNc3ccc([N+](=O)[O-])cn3)C2=O)cc1 (centres undefined)	inactive	
CC(C)CCNC(=O)CCSCCC(=O)NCCC(C)C	inactive	
Cc1c(C(=O)Nc2ccccc2F)sc2ncn(CC(=O)N3CCCCC3)c(=O)c12	inconclusive: 16.5 µM [inhibitor, single point]	
CSc1cccc(NC(=O)c2cc(S(=O)(=O)N3CCc4ccccc43)cn2C)c1	inconclusive: 18.5 µM [inhibitor, single point]	

SMILES	Potency	activity change, negative = inhibition
CCOC(=O)CSc1nc(COc2ccccc2)nc2ccccc12	inconclusive: 18.5 µM [inhibitor, single point]	
Fc1ccc(COc2ccccc2CNCc2ccncc2)cc1	inconclusive: 10.4 µM [inhibitor, single point]	
CCOc1c(O)ccc(C2NC(=O)NC(C)=C2C(=O)OC)c1[N+](=O)[O-] (centres undefined)	inconclusive: 18.5 µM [inhibitor, single point]	
N#Cc1ccccc1NC(=O)Nc1ccccc1	inactive	
O=C(O)Cn1nc(C(F)(F)F)c2c1CCC2	inconclusive: 0.0329 µM [inhibitor, full curve, poor fit]	
CC(=O)N/N=C\c1ccccc1OC/C=C/c1ccccc1	inconclusive: 5.86 µM [inhibitor, partial curve, poor fit]	
C=C1SC(=Nc2ccccc2Cl)N(C(=O)c2sc3ccccc3c2Cl)C12CCCCC2	inconclusive: 11.7 µM [inhibitor, single point]	
CC(=O)NC1CCC(C(=O)O)(c2ccccc2)C1 (centres undefined)	inconclusive: 14.7 µM [inhibitor, partial curve, poor fit]	
O=C(CN1CCOCC1)c1cccc2ccccc12	inactive	
COc1ccccc1C(=O)COC(=O)CNS(=O)(=O)c1ccc(NC(C)=O)cc1	inactive	
O=C(NCc1nnc(SCC(=O)N2CCCCCC2)o1)c1ccc(F)cc1	inconclusive: 5.22 µM [inhibitor, partial curve]	
Cc1cccc(OP(=O)(Nc2c(C)n(C)n(-c3ccccc3)c2=O)Oc2cccc(C)c2)c1	inactive	
CC(C)n1c(COc2ccccc2)nc2ccccc21	inactive	
Cc1cc(C)cc(NC(=O)C(=O)NCC2CCCN2S(=O)(=O)c2cccs2)c1 (centres undefined)	inconclusive: 0.828 µM [inhibitor, single point]	
O=C(C1CC1)N1N=C(c2ccccc2)CC1(O)C(F)(F)C(F)(F)F (centres undefined)	inactive	
O=C(/C=C/c1cccs1)c1ccc([N+](=O)[O-])cc1	inactive	
COc1cccc(Nc2ncc(C#N)c(N)n2)c1	inconclusive: 4.65 µM [inhibitor, partial curve]	
CS(=O)(=O)N1CCN(c2ccc(NC(=O)c3ccc([N+](=O)[O-])o3)cc2)CC1	inconclusive: 18.5 µM [inhibitor, single point]	
Cc1nn(C)cc1CN(C)C(=O)c1cc(COc2ccc(F)cc2F)on1	inconclusive: 6.57 µM [inhibitor, partial curve]	
CN(C)c1cccc(C(=O)n2cc(C(=O)c3cc(F)ccc3O)cn2)c1	inactive	
CC(Oc1ccc(S(=O)(=O)N2CCCC2)cc1[N+](=O)[O-])C(=O)N(C)c1ccccc1 (centres undefined)	inconclusive: 11.7 µM [inhibitor, partial curve, poor fit]	
C#CCSc1nnc(-c2ccc([N+](=O)[O-])cc2)o1		inactive: -4.13% [at 5.75 µM]

Some of these compounds in order of molar mass, low to high:
SMILES	Potency	activity change, negative = inhibition
CC(C)n1c(COc2ccccc2)nc2ccccc21	inactive	
Cc1ccc(S(=O)(=O)n2c([N+](=O)[O-])cnc2C)c(C)c1C	inconclusive: 2.62 µM [inhibitor, full curve, poor fit]	
Cc1cccc(OP(=O)(Nc2c(C)n(C)n(-c3ccccc3)c2=O)Oc2cccc(C)c2)c1	inactive	
